Measurements from the supplement of paper PMC8732350.
Counter-ions that a name gives are not always drawn. This is one part of the list. Most values lie within the scatter of the assay; repeated measurements hardly agree.

test system: A549; experiment: surface PD-L1 immunofluorescence intensity relative to IFN-gamma-only control (ratio); higher = more PD-L1 expression; details: 10 µM; exposure time 24 h; IFN-gamma 100 ng/mL

Row | Structure (SMILES) | surface PD-L1 immunofluorescence intensity
1 | CCOC(=O)O[C@]1(C(=O)OCCl)CC[C@H]2[C@@H]3CCC4=CC(=O)C=C[C@]4(C)[C@H]3[C@@H](O)C[C@@]21C [Loteprednol etabonate] | 0.762
2 | CCc1cc2c(cc1N1CCC(N3CCOCC3)CC1)C(C)(C)c1[nH]c3cc(C#N)ccc3c1C2=O | 0.979
3 | N=C(N)c1ccc(N2CCN(C3CCN(CC(=O)O)CC3)CC2)cc1 | 1.02
4 | C#CCN[C@@H]1CCc2ccccc21 [Rasagiline mesylate] | 1
5 | N#C/C(=C\c1ccc(O)c(O)c1)C(=O)OCCc1cccs1 | 0.996
6 | C1COC(NC(C2CC2)C2CC2)=N1 [Rilmenidine] | 1.05
7 | C1COC(NC(C2CC2)C2CC2)=N1 [Rilmenidine hemifumarate] | 0.993
8 | COc1ccc(-c2cc(=S)ss2)cc1 [Anethole-trithione] | 0.981
9 | COc1ccc(-c2cc(=S)ss2)cc1 [Anethole trithione] | 1.04
10 | COc1ccc(NS(=O)(=O)c2sc3ccc(Cl)cc3c2C)cc1N1CCNCC1 | 0.937
11 | CC1(C)CCC(C)(C)c2cc(C3(c4ccc(C(=O)O)cc4)OCCO3)ccc21 | 1.05
12 | O=C(O)c1cn(C2CC2)c2cc(N3CCNCC3)c(F)cc2c1=O [Ciprofloxacin hydrochloride monohydrate] | 0.917
13 | CCOc1nc2cccc(C(=O)OCc3oc(=O)oc3C)c2n1Cc1ccc(-c2ccccc2-c2noc(=O)[nH]2)cc1 [Azilsartan Medoxomil (TAK-491)] | 0.981
14 | OC[C@H]1O[C@@H](n2cnc3c(NC4CCCC4)ncnc32)[C@H](O)[C@@H]1O [N6-Cyclopentyladenosine] | 0.968
15 | CCN(C(=O)c1c(O)c2c(Cl)cccc2n(C)c1=O)c1ccccc1 | 0.986
16 | CN1CC(=O)N2[C@H](c3ccc4c(c3)OCO4)c3[nH]c4ccccc4c3C[C@@H]2C1=O [Tadalafil (Cialis)] | 1.09
17 | CC(C)NCC(O)COc1ccc(CCOCC2CC2)cc1 (configuration not stated) [Betaxolol hydrochloride] | 0.917
18 | CC(=O)[C@@]1(O)CC[C@H]2[C@@H]3C[C@H](C)C4=CC(=O)C=C[C@]4(C)[C@@]3(F)[C@@H](O)C[C@@]21C [Fluorometholone] | 0.883
19 | Cc1c(C(=O)NN2CCCCC2)nn(-c2ccc(Cl)cc2Cl)c1-c1ccc(I)cc1 | 1.05
20 | COc1cc(C(=O)NCc2ccc(OCCN(C)C)cc2)cc(OC)c1OC [Trimethobenzamide hydrochloride] | 0.883
21 | CCCN1CCCC[C@H]1C(=O)Nc1c(C)cccc1C [Ropivacaine HCl] | 1.01
22 | Cc1ccc(S(=O)(=O)N[C@@H](Cc2ccccc2)C(=O)CCl)cc1 | 1.04

Reformatted field by field: part of the list above
C#CCN[C@@H]1CCc2ccccc21 [Rasagiline mesylate]
  surface PD-L1 immunofluorescence intensity: 1
CC1(C)CCC(C)(C)c2cc(C3(c4ccc(C(=O)O)cc4)OCCO3)ccc21
  surface PD-L1 immunofluorescence intensity: 1.05
